Data on two compounds can be found in article PMC8876231, “Analogues of Natural Chalcones as Efficient Inhibitors of AKR1C3” (Metabolites, 2022).

The chains behind the UniProt entries cited, without tags or fusion partners.
UniProt P52895, whole entry: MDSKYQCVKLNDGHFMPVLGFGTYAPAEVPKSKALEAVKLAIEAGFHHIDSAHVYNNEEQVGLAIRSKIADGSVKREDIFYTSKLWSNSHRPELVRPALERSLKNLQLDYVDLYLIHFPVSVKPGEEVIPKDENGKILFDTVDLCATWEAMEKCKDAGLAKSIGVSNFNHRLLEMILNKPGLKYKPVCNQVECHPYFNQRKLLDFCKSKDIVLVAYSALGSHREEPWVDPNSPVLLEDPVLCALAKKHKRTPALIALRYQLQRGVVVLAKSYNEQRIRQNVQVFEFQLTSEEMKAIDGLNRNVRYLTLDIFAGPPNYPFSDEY

The assay addresses AKR1C2 (Homo sapiens, UniProt P52895). Briefly: AKR1C2 inhibition assay (DHT to 3α-androstanediol). Conditions: 10 µM compound; mean ± SD. The source says:
For enzymatic assays and inhibitor testing, all enzymes were cloned into bacterial or mammalian expression vectors. AKR1C3 and the human hydroxysteroid dehydrogenases HSD17B1, HSD17B2, HSD17B4 (SDR domain), HSD17B7, and HSD17B10 were cloned into a pGEX vector as described in [71, 72]. The coding sequences for AKR1C1, AKR1C2, and AKR1C4 were cloned by Gateway technology into the pcDNA3-N-MycDest vector according to the manufacturer’s instructions (Life Technologies, Carlsbad, CA, USA). The p11 plasmid coding for HSD17B14 (S205 variant) was a gift from Udo Opperman SGC Oxford, UK. For assays with HSD17B3, HEK293 cells stably expressing HSD17B3 were used. Enzymes were expressed in E. coli BL21 DE3 or E. coli BL21 DE3 Codon Plus RP (Stratagene, San Diego, CA, USA) or in HEK293 cells as described in [71, 72, 73]. Bacterial and cell pellets were stored at −20 °C and −80 °C, respectively, until use.
Inhibition assays were carried out as described in [71, 74]. […] Radioactivity was detected by online scintillation counting by using a radioactivity monitor (LB506D, Berthold Technologies, Bad Wildbad, Germany). Conversion of substrates to products was determined by integration of the peak area of the substrate and product peaks in percent. […]

A number of entries come with more than one value. Only these are listed. An entry can have further records. Values given together differ for a reason that is not stated; dose, time, organism, isomer or construct need not be as stated for each record.

`COc1ccc(/C=C/C(=O)c2c(O)cc(O)cc2O)cc1` [Compound 19]: the “Inhibition of AKR1C2 at 10 µM in %” value was 38.5 ± 1.3% and not more than 42.3%.

`Cc1cccc(/C=C/C(=O)c2c(O)cc(O)cc2O)c1` [Compound 20]: the “Inhibition of AKR1C2 at 10 µM in %” value is 39.9 ± 4.0% and not more than 42.3%.
